Reference: PubChem BioAssay (Tox21)
The source calls these results inconclusive, neither active nor inactive. Unless noted, calls come from the whole dose curve; as a rule, active = well fitted curve in the direction sought with a large enough effect in the repeat runs; inconclusive = weak or mixed curves; inactive = no such curve, though single readings can be large; an effect the other way counts as inactive or inconclusive.

The chains behind the UniProt entries cited, without tags or fusion partners.
UniProt P04150, whole entry: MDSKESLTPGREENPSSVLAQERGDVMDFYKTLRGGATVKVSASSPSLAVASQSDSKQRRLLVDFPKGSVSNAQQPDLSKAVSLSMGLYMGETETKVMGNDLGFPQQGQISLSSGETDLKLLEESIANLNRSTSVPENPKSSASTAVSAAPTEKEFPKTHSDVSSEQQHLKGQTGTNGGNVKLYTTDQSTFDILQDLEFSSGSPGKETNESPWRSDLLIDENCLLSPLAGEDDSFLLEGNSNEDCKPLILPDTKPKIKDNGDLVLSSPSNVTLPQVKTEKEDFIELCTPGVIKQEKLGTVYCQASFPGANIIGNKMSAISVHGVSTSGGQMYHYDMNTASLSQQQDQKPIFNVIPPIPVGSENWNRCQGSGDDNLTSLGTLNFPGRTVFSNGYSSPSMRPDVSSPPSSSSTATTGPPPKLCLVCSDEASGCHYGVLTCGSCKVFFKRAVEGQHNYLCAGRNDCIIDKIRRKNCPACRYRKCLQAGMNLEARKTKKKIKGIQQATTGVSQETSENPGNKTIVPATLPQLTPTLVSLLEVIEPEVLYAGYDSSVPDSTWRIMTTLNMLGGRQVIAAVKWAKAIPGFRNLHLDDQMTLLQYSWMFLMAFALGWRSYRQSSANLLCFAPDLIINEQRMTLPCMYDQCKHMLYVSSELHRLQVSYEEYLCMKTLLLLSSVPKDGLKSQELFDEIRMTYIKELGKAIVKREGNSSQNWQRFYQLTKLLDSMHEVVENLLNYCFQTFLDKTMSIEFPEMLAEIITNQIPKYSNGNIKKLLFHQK
UniProt P10275, whole entry: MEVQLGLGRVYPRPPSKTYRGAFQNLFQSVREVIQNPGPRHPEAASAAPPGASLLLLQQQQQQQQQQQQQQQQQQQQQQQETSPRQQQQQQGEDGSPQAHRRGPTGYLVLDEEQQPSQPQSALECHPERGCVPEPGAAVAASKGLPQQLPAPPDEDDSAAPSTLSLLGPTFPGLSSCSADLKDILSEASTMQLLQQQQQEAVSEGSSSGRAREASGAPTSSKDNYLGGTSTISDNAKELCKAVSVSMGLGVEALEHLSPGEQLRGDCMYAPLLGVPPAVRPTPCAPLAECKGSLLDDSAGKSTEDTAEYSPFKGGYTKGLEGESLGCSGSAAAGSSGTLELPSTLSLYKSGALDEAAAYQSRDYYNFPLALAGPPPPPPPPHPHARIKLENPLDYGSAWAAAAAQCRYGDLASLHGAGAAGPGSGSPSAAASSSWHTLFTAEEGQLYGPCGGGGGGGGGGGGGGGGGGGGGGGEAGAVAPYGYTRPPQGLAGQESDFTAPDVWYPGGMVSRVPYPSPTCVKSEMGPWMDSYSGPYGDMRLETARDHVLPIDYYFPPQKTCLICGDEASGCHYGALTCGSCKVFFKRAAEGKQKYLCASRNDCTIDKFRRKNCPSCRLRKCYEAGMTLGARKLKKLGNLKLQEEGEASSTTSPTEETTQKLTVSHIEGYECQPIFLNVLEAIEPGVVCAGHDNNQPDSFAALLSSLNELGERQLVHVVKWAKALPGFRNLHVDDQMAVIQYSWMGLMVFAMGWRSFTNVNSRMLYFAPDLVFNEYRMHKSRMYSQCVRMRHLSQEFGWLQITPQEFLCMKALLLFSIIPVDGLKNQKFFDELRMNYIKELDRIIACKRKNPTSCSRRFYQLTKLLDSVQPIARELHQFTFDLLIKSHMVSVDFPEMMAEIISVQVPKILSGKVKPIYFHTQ
UniProt O75469, whole entry: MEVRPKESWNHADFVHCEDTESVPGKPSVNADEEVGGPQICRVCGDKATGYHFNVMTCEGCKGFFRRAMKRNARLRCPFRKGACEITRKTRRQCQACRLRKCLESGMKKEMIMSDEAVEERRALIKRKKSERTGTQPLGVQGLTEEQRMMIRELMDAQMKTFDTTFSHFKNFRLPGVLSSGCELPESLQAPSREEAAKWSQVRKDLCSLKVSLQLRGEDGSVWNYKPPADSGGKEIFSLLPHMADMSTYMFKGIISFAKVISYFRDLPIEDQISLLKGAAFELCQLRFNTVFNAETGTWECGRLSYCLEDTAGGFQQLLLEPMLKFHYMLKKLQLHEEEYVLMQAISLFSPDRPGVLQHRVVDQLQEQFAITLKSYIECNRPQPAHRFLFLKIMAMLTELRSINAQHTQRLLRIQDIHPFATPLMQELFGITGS
UniProt P19793, whole entry: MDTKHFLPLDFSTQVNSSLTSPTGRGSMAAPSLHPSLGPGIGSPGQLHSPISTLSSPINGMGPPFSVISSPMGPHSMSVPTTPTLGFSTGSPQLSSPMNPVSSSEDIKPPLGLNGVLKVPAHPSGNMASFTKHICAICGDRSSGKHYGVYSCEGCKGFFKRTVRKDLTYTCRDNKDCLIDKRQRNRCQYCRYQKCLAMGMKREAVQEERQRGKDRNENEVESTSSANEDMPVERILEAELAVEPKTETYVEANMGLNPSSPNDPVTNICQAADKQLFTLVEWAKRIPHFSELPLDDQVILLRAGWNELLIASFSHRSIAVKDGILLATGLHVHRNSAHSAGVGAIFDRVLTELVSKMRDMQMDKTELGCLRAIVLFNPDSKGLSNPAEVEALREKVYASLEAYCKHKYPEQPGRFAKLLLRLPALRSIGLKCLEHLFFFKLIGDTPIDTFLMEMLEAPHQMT
UniProt Q14994, whole entry: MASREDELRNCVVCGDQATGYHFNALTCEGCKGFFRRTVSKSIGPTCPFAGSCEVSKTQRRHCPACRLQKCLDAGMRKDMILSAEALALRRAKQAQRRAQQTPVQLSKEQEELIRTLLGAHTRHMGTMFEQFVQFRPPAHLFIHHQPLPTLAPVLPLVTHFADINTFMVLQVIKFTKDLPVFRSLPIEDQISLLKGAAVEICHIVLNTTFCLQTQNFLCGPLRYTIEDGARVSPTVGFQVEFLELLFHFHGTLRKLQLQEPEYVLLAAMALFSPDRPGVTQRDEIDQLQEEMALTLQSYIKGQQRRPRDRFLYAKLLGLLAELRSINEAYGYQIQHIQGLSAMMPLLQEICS
UniProt Q92731, whole entry: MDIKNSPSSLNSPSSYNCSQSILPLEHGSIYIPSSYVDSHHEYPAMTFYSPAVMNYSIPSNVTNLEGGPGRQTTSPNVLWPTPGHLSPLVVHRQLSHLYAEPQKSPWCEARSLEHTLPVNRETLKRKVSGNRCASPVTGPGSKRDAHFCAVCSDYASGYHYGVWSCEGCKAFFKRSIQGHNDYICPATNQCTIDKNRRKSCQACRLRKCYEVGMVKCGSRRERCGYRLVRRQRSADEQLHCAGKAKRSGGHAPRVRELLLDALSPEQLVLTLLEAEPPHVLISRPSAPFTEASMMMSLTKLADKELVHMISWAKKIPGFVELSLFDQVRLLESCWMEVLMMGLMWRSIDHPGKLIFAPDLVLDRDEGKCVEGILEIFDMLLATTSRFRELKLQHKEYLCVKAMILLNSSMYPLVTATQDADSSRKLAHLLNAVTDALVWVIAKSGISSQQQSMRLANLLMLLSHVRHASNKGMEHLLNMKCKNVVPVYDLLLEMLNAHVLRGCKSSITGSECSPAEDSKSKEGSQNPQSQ
UniProt P16473, whole entry: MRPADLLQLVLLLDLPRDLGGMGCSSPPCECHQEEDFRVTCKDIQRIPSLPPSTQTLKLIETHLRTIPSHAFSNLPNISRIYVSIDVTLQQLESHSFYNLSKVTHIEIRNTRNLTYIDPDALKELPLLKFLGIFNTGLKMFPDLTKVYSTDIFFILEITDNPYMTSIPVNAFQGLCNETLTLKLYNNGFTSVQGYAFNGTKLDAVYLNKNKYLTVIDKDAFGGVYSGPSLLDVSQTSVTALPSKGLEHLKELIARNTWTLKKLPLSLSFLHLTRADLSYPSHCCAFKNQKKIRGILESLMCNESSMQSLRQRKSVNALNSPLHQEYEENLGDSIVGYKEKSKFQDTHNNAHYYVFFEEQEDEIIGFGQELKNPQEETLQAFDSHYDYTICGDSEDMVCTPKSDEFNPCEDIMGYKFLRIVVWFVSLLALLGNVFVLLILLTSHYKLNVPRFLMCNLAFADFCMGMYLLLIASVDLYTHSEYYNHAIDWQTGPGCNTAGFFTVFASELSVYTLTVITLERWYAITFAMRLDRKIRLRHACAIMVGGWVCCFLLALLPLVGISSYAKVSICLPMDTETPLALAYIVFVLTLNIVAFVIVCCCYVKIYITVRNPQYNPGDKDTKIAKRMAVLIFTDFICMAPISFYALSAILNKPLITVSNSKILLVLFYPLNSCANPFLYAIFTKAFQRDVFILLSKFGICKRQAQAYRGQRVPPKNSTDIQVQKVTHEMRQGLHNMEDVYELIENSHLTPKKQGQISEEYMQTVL

Columns and labels:
[1] = biological target: Glucocorticoid receptor (Homo sapiens) (UniProt P04150); assay: qHTS assay to identify small molecule antagonists of the glucocorticoid receptor (GR) signaling pathway (AID 720692; active = well fitted inhibition curve with a large enough effect in the signal ratio in the repeat runs, not every such curve was filed as active; inconclusive = weak or mixed curves, or effect the other way; inactive = no such curve, though single readings can be large or run the other way; the % refers to the signal ratio); conditions: GR-bla HeLa, beta-lactamase FRET ratio, dexamethasone-stimulated, 18 h; series mostly up to 58.5 µM
[2] = qHTS assay to identify small molecule antagonists of the glucocorticoid receptor (GR) signaling pathway - cell viability counter screen (AID 720693); conditions: GR-bla HeLa viability, CellTiter-Glo luminescence, 18 h; with 5 nM dexamethasone present; note: nearly all actives have a fitted effect of over 55% in size
[3] = qHTS assay for identifying genotoxic compounds that show differential cytotoxicity against isogenic chicken DT40 cell lines with known DNA damage response pathways - Rad54/Ku70 mutant cell line (AID 743015); conditions: DT40 Rad54/Ku70 mutant viability, CellTiter-Glo, 40 h; note: nearly all actives have a fitted effect of over 60% in size
[4] = biological target: Androgen receptor (Homo sapiens) (UniProt P10275); assay: qHTS assay to identify small molecule antagonists of the androgen receptor (AR) signaling pathway (AID 743035; active = well fitted inhibition curve with a large enough effect in the signal ratio in the repeat runs, not every such curve was filed as active; inconclusive = weak or mixed curves, or effect the other way; inactive = no such curve, though single readings can be large or run the other way; the % refers to the signal ratio); conditions: HEK293 AR-UAS-bla, R1881-stimulated, beta-lactamase FRET, 16 h
[5] = qHTS assay to identify small molecule antagonists of the estrogen receptor alpha (ER-alpha) signaling pathway - cell viability counter screen (AID 743074; calls by dose curve;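 note: HEK293 cells carrying ER-alpha-UAS-bla reporter stimulated with 17beta-estradiol; nearly all actives have a fitted effect of over 45% in size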); conditions: ERalpha-bla HEK293 viability, CellTiter-Glo luminescence, 18 h
[6] = qHTS assay to identify small molecule antagonists of the sonic hedgehog signaling (Shh) pathway - cell viability counter screen (AID 1259367); conditions: NIH/3T3 Gli1-Luc viability, CellTiter-Fluor, 24 h; note: nearly all actives have a fitted effect of over 55% in size
Method in brief: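 Cytotoxicity was assessed in parallel with Shh reporter activity by measuring live-cell protease fluorescence (CellTiter-Fluor) in NIH/3T3 cells stably carrying Gli1-Luc, treated with compound under conditioned medium stimulation for 23 hr plus 1 hr reagent incubation.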

[7] = qHTS assay to identify small molecule antagonists of the progesterone receptor (PR) signaling pathway - cell viability counter screen (AID 1346798); conditions: PR-UAS-bla HEK293T viability, CellTiter-Glo luminescence, 16 h; note: nearly all actives have a fitted effect of over 50% in size
Method in brief: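 PR-UAS-bla HEK293T cells, 3,000/well in 2% charcoal-stripped FBS medium, dosed with compounds plus R5020 agonist and incubated 16 h at 37C. Viability then measured in the same wells by CellTiter-Glo luminescence after 30 min at RT.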

[8] = biological target: Nuclear receptor subfamily 1 group I member 2 (Homo sapiens) (UniProt O75469); assay: Human pregnane X receptor (PXR) small molecule agonists, qHTS assay (AID 1346982); conditions: PXR-Luc HepG2, CYP3A4 luciferase reporter, 24 h; note: nearly all actives have a fitted effect of over 35% in size
Method in brief: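 After plating in 5% charcoal-stripped FBS and a 5 hr rest, PXR-Luc HepG2 cells received compounds in DMSO. Following 24 hr at 37 C, ONE-Glo was added and light output read.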

[9] = qHTS assay to identify small molecule antagonists of the retinoid-related orphan receptor gamma (ROR-gamma) signaling pathway - cell viability counter screen (AID 1159520); conditions: Tet-on RORgamma CHO cells viability, ATP luminescence, 16 h; note: nearly all actives have a fitted effect of over 50% in size
Method in brief: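 Tet-on ROR gamma CHO cells (1,000/well) were plated 4 hr, given compounds in DMSO for 2 hr at 37 C, then induced with 1 uM final doxycycline for 16 hr. Viability was read as ATP by CellTiter-Glo luminescence after 30 min.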

[10] = biological target: Retinoic acid receptor RXR-alpha (Homo sapiens) (UniProt P19793); assay: qHTS assay to identify small molecule agonists of the RXR signaling pathway (AID 1159527; calls by dose curve; note: nearly all actives have a fitted effect of over 35% in size); conditions: HEK293T RXRa-UAS-bla, beta-lactamase ratio, 16 h
Method in brief: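 GeneBLAzer RXR-alpha-UAS-bla HEK 293T cells in 2% charcoal-stripped FBS medium were exposed to compounds for 16 hr at 37 C in agonist mode. Beta-lactamase reporter read as 460/530 nm FRET ratio after 2 hr substrate loading.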

[11] = qHTS assay to identify small molecule antagonists of the retinoid acid receptor (RAR) signaling pathway - cell viability counter screen (AID 1159551); conditions: C3RL4 cells viability, ATP luminescence (CellTiter-Glo), 6 h; note: nearly all actives have a fitted effect of over 35% in size
Method in brief: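 Viability of C3RL4 cells is quantified from ATP by luminescence after 6 h treatment at 37 C with compounds and 1 uM retinol.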

[12] = biological target: Nuclear receptor subfamily 1 group I member 3 (Homo sapiens) (UniProt Q14994); assay: qHTS assay to identify small molecule agonists of the constitutive androstane receptor (CAR) signaling pathway (AID 1224839); conditions: HepG2 hCAR CYP2B6-luciferase, agonist mode, 24 h; note: nearly all actives have a fitted effect of over 15% in size
[13] = qHTS assay to identify small molecule antagonists of the estrogen related receptor signaling pathway with the pleiotropic PPARgamma coactivator (PGC) from Tox21 10K library - cell viability counter screen (AID 1224840; active = well fitted cell-killing curve with a large enough effect in the repeat runs, not every such curve was filed as active; inconclusive = weak or mixed curves, or effect the other way; inactive = no such curve, though single readings can be large or run the other way; note: nearly all actives have a fitted effect of over 40% in size); conditions: PGC/ERR reporter cells viability, CellTiter-Fluor, 17.5 h
Method in brief: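 Viability counter screen, PGC/ERR cells: 17.5 h compound exposure at 37 C, CellTiter-Fluor fluorescence endpoint.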

[14] = qHTS assay to identify small molecule antagonists of the estrogen receptor alpha (ER-alpha) signaling pathway using the BG1 cell line in the presence of 0.1 nM 17-beta-estradiol - cell viability counter screen (AID 1259241); conditions: VM7Luc4E2 (BG1) viability, CellTiter-Fluor protease, 22 h; 0.1 nM estradiol agonist added; note: nearly all actives have a fitted effect of over 40% in size
Method in brief: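 VM7Luc4E2 cells (endogenous full-length ER-alpha, 4xERE-luciferase), cultured 5 days in charcoal-stripped serum, exposed to compounds with 0.1 nM 17beta-estradiol (final) for 22 hr at 37C. Viability read in same wells as live-cell protease fluorescence after 30 min.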

[15] = qHTS assay to identify small molecule antagonists of the androgen receptor (AR) signaling pathway using the MDA cell line in the presence of 0.5 nM R1881 - cell viability counter screen (AID 1259242); conditions: MDA-kb2 viability, CellTiter-Fluor protease fluorescence, 16 h; note: nearly all actives have a fitted effect of over 45% in size
Method in brief: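 Human breast carcinoma MDA-kb2 cells, cultured without CO2, receive compounds alongside 0.5 nM (final) R1881 agonist. After 16 hr at 37C, viability is taken as live-cell protease signal.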

[16] = qHTS assay to identify small molecule antagonists of the sonic hedgehog signaling (Shh) pathway (AID 1259369; calls by dose curve; note: nearly all actives have a fitted effect of over 45% in size); conditions: NIH/3T3 Gli1-Luc reporter, Shh antagonist, luminescence 24 h
Method in brief: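 Gli1 transcriptional reporter (firefly Luc) in NIH/3T3 background, conditioned-medium activated. 24hr exposure, luminescence endpoint.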

[17] = biological target: Estrogen receptor beta (Homo sapiens) (UniProt Q92731); assay: qHTS assay to identify small molecule agonists of the estrogen receptor beta (ER-beta) signaling pathway (AID 1259377; active = well fitted activation curve with a large enough effect in the signal ratio in the repeat runs, not every such curve was filed as active; inconclusive = weak or mixed curves, or effect the other way; the % refers to the signal ratio); conditions: ER-beta-UAS-bla HEK293T, beta-lactamase FRET ratio, 16 h
[18] = qHTS assay for small molecule disruptors of the mitochondrial membrane potential - cell viability (AID 720634; calls by dose curve; note: nearly all actives have a fitted effect of over 20% in size); conditions: HepG2 viability, ATP luminescence (CellTiter-Glo), 1 h
Method in brief: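 Same-well counter-screen: following the MMP dye addition, CellTiter-Glo was added to 1 hr compound-treated HepG2 cells and luminescence read after 30 min at room temperature.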

[19] = qHTS assay to identify small molecule antagonists of the androgen receptor (AR) signaling pathway - cell viability counter screen (AID 743033; note: nearly all actives have a fitted effect of over 45% in size); conditions: AR-bla HEK293 viability, CellTiter-Glo luminescence, 16 h
[20] = qHTS assay to identify small molecule antagonists of the thyroid receptor (TR) signaling pathway - cell viability counter screen (AID 743064); conditions: GH3.TRE-Luc viability, CellTiter-Fluor, 24 h; note: nearly all actives have a fitted effect of over 50% in size
Method in brief: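 GH3.TRE-Luc rat pituitary cells dosed after 4 hr plating, co-stimulated with T3 at 1 nM final, incubated 23.5 h at 37 C. Viability measured in the same wells by CellTiter-Fluor fluorescence after 30 min further at 37 C.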

[21] = qHTS assay for small molecule agonists of the antioxidant response element (ARE) signaling pathway (AID 743202; active = well fitted activation curve with a large enough effect in the signal ratio in the repeat runs, not every such curve was filed as active; inconclusive = weak or mixed curves, or effect the other way; inactive = no such curve, though single readings can be large or run the other way; the % refers to the signal ratio); conditions: HepG2 ARE-bla reporter, beta-lactamase FRET, 16 h
Method in brief: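 Steps: seed ARE-bla HepG2 cells (2,000/well); incubate 5 h at 37 C; add compounds by pin tool; incubate 16 h at 37 C; add FRET substrate; read fluorescence after 2 h at RT.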

[22] = qHTS assay to identify small molecule agonists of the endoplasmic reticulum stress response signaling pathway (AID 1159516; active = well fitted activation curve with a large enough effect in the signal ratio in the repeat runs, not every such curve was filed as active; inconclusive = weak or mixed curves, or effect the other way; the % refers to the signal ratio); conditions: ESRE-bla HeLa, ER stress beta-lactamase reporter, 5 h
Method in brief: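 Beta-lactamase expression from the ER stress response element in HeLa reporter cells is quantified with the LiveBLAzer B/G FRET substrate, read at 405 nm excitation after 2 hr at room temperature, following 5 hr compound treatment at 37 C.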

[23] = qHTS assay to identify small molecule antagonists of the retinoic acid receptor (RAR) signaling pathway (AID 1159552; note: nearly all actives have a fitted effect of over 50% in size); conditions: C3RL4 RARE luciferase reporter, retinol-stimulated, 6 h
Method in brief: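 Retinol signaling pathway inhibitors screened in C3RL4 RARE-luciferase reporter cells seeded overnight at 37 C, then compounds added with 1 uM (final) retinol as pathway substrate. After 6 hr at 37 C, luciferase luminescence read after 30 min at room temperature.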

[24] = qHTS assay to identify small molecule agonists of the constitutive androstane receptor (CAR) signaling pathway - cell viability counter screen (AID 1224836); conditions: HepG2-CYP2B6-hCAR viability, CellTiter-Fluor, 23 h; PK11195 added to every well; note: nearly all actives have a fitted effect of over 45% in size
Method in brief: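 HepG2 cells stably carrying hCAR and a CYP2B6-2.2kb reporter; 15-concentration compounds plus PK11195 (final 0.75 uM), 23 hr at 37 C/5% CO2. Viability read by CellTiter-Fluor fluorescence.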

[25] = qHTS assay to identify small molecule antagonists of the constitutive androstane receptor (CAR) signaling pathway - cell viability counter screen (AID 1224837); conditions: HepG2-CYP2B6-hCAR viability, CellTiter-Fluor, 23 h; co-treated with 50 nM CITCO; note: nearly all actives have a fitted effect of over 45% in size
Method in brief: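 In quantitative HTS format, compounds at 15 concentrations were applied to HepG2 cells double-transfected with hCAR and CYP2B6-2.2kb under 50 nM CITCO stimulation; live-cell protease activity was read after 23 hr via CellTiter-Fluor.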

[26] = qHTS assay to identify small molecule HDAC inhibitors (AID 1259364); conditions: HCT-116 HDAC-Glo I/II luminescence, 2 h
Method in brief: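 After a 2 hr compound incubation (37C, 5% CO2), HCT-116 cells seeded at 1,500/well the day before received HDAC-Glo reagent; signal read as luminescence after 30 min at room temperature.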

[27] = qHTS assay to identify small molecule agonists of the estrogen receptor beta (ER-beta) signaling pathway - cell viability counter screen (AID 1259380); conditions: ER-beta-bla HEK293T viability, CellTiter-Glo luminescence, 16 h; note: nearly all actives have a fitted effect of over 30% in size
Method in brief: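 In this qHTS counter screen, HEK293T cells carrying an ER-beta/UAS beta-lactamase reporter, grown in 2% charcoal-stripped FBS, received compound for 16 hr; ATP-based CellTiter-Glo luminescence was then read after 30 min at room temperature.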

[28] = qHTS assay to identify small molecule agonists or antagonists of the thyroid stimulating hormone receptor (TSHR) signaling pathway - wild type cell line counter screen (AID 1259384; calls by dose curve); conditions: HEK293 wild type, cAMP HTRF counter-screen
Method in brief: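 Wild-type HEK293 cells were plated 18 h at 37 C/5% CO2, pin-dosed with compound plus Ro20-1724 medium, held 30 min at room temperature, then given cAMP-d2 and anti-cAMP-cryptate; fluorescence was read after 1 h. Fifteen concentrations, triplicate.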

[29] = biological target: Thyrotropin receptor (Homo sapiens) (UniProt P16473); assay: qHTS assay to identify small molecule antagonists of the thyroid stimulating hormone receptor (TSHR) signaling pathway (AID 1259385; calls by dose curve; note: nearly all actives have a fitted effect of over 20% in size); conditions: TSHR-HEK293 cAMP HTRF, TSH-stimulated antagonist mode

Measured: Potency
Potency is the fitted concentration of half-maximal effect.

CN(C(=O)Cc1ccc(Cl)c(Cl)c1)[C@H]1CC[C@@]2(CCCO2)C[C@@H]1N1CCCC1
inconclusive: [1] 26.8 µM | [2] 26.8 µM | [3] 18.8 µM | [4] 26.8 µM | [5] 26.8 µM | [6] 26.6 µM | [7] 29.8 µM | [8] 26.6 µM

O=[N+]([O-])c1ccc([N+](=O)[O-])cc1
inconclusive: [9] 61.1 µM | [10] 4.36 µM | [11] 68.6 µM | [12] 43.3 µM | [13] 54.5 µM | [14] 54.5 µM | [15] 61.1 µM | [16] 24.3 µM | [17] 68.6 µM

Nc1cc([N+](=O)[O-])cc([N+](=O)[O-])c1O
inconclusive: [18] 55.7 µM | [19] 39.8 µM | [20] 55.7 µM | [21] 55.7 µM | [22] 5.01 µM | [23] 49.6 µM | [24] 31.3 µM | [25] 49.6 µM | [14] 49.6 µM | [15] 31.3 µM | [26] 35.1 µM | [27] 31.3 µM | [28] 49.6 µM | [29] 31.3 µM
